Test results: article doi:10.1101/2021.01.14.426738
No constants are given. Whether binding was seen depends on the method and setting. Binding seen in cells or lysates may run through a third protein. Some results given as binding are weak or reduced against the parent protein; the word gives no strength. For part of these data: Where a sequence is shown, tags or fusion partners need not be part of it.

The chains behind the UniProt entries cited, without tags or fusion partners.
UniProt O15392: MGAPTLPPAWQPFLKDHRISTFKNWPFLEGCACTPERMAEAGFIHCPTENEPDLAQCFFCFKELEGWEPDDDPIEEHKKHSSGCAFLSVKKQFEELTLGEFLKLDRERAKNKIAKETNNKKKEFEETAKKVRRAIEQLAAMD
UniProt P38159: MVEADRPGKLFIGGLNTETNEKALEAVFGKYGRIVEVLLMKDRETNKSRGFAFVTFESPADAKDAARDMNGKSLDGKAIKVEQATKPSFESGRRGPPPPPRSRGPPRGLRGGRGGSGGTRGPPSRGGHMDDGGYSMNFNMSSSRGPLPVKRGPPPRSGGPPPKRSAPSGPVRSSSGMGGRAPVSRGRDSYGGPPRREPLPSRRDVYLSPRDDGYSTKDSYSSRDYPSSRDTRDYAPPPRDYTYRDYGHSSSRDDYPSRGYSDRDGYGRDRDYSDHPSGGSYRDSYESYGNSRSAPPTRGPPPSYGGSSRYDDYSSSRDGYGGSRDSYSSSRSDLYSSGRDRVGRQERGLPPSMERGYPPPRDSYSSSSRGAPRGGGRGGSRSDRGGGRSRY
UniProt Q9NQS7: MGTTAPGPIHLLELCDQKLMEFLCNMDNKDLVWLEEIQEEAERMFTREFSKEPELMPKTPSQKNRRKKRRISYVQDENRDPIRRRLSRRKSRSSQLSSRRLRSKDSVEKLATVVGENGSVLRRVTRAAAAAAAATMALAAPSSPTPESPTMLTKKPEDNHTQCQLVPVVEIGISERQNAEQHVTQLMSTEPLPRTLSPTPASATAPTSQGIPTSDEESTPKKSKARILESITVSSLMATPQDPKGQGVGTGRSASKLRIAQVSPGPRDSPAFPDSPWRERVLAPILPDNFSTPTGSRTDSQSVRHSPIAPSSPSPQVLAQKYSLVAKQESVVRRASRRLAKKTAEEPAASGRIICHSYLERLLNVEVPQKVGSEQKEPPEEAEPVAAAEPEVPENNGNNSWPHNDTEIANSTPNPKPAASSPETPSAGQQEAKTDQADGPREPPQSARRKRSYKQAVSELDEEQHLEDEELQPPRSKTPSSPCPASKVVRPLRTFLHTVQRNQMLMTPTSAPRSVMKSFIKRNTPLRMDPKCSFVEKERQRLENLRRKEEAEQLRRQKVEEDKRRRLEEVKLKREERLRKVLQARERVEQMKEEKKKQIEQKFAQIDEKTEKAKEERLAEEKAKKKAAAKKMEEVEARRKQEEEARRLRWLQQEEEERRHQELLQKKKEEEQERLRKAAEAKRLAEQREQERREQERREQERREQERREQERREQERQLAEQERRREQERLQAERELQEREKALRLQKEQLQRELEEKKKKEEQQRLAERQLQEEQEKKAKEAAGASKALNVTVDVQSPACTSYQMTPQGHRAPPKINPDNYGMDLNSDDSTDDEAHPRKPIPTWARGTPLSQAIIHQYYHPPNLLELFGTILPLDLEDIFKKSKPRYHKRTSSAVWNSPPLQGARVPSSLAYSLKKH

Legend:
[1] = target: Survivin (endogenous) (human (endogenous in HeLa)) (UniProt O15392); test: proximity ligation
[2] = target: Flag-tagged RBMX (human) (UniProt P38159); test: co-IP
[3] = target: Aurora B (endogenous) (human (endogenous in HeLa)) (UniProt Q96GD4); test: co-IP
[4] = target: T1, Borealin (endogenous) (human (endogenous in HeLa)) (UniProt Q53HL2); test: co-IP
T1 sequence: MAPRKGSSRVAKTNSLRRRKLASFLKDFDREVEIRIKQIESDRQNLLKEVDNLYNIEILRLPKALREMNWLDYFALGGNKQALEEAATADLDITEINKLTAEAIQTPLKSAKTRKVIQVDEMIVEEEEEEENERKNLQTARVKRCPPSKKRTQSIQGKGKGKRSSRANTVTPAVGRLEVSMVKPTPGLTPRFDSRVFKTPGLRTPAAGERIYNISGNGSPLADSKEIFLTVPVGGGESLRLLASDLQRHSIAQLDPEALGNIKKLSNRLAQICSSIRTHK

[5] = target: RBMX (endogenous) (human (endogenous in HeLa)) (UniProt P38159); test: co-IP
[6] = target: T2, Borealin (endogenous) (human (endogenous in HeLa)), Q53HL2; test: co-IP; conditions: remark: other sources report otherwise
T2 chain: T1 sequence

With LAP-RBMX (from UniProt P38159 1-391) the binding [1] was “binds”.

For “HA-tagged INCENP (from UniProt Q9NQS7 1-918)”, the binding [2] was “binds”.

With “RBMX (endogenous) (from UniProt P38159 1-391)” the binding [3] was “binds” and the binding [4] was “binds”.

“HA-tagged Aurora-B (from UniProt Q96GD4 1-344) (enzyme)” was tested, and the binding [2] was “binds”.

For “Aurora B (endogenous) (from UniProt Q96GD4 1-344) (enzyme)”, the binding [5] was “binds”.

In the case of “HA-tagged Survivin (from UniProt O15392 1-142)”, the binding [2] is reported as “binds”.

B1: HA-tagged Borealin (protein, UniProt Q53HL2 1-280)
chain: T1 sequence
For B1, the binding [2] was “binds”.

B2: Aurora B (endogenous), Q96GD4 1-344 (enzyme)
chain: MAQKENSYPWPYGRQTAPSGLSTLPQRVLRKEPVTPSALVLMSRSNVQPTAAPGQKVMENSSGTPDILTRHFTIDDFEIGRPLGKGKFGNVYLAREKKSHFIVALKVLFKSQIEKEGVEHQLRREIEIQAHLHHPNILRLYNYFYDRRRIYLILEYAPRGELYKELQKSCTFDEQRTATIMEELADALMYCHGKKVIHRDIKPENLLLGLKGELKIADFGWSVHAPSLRRKTMCGTLDYLPPEMIEGRMHNEKVDLWCIGVLCYELLVGNPPFESASHNETYRRIVKVDLKFPASVPMGAQDLISKLLRHNPSERLPLAQVSAHPWVRANSRRVLPPSALQSVA
With B2 the binding [6] was “binds”.
